Source: publication PMC8213727
These are yes or no findings as the source states them, for the method shown. Binding seen in cells or lysates may run through a third protein. Some results given as binding are weak or reduced against the parent protein; the word gives no strength. For part of these data: Tags and fused reporters may be left off the sequences shown.

How the values were obtained:
[1] = biological target: T1, Myc-GFP-tagged Fl(2)d (full length) (Drosophila melanogaster) (UniProt Q9Y091); assay: co-IP; S2R+ cells co-transfected with a Myc-GFP-tagged bait and an HA-tagged prey; NET buffer (50 mM Tris-HCl pH 7.5, 150 mM NaCl, 0.1% Triton, 1 mM EDTA, 10% glycerol), RNase A; GFP-magnetic beads, 4 °C; blots with anti-Myc or anti-GFP and anti-HA; some experiments after control (LacZ), vir or Hakai knock-down
T1 sequence: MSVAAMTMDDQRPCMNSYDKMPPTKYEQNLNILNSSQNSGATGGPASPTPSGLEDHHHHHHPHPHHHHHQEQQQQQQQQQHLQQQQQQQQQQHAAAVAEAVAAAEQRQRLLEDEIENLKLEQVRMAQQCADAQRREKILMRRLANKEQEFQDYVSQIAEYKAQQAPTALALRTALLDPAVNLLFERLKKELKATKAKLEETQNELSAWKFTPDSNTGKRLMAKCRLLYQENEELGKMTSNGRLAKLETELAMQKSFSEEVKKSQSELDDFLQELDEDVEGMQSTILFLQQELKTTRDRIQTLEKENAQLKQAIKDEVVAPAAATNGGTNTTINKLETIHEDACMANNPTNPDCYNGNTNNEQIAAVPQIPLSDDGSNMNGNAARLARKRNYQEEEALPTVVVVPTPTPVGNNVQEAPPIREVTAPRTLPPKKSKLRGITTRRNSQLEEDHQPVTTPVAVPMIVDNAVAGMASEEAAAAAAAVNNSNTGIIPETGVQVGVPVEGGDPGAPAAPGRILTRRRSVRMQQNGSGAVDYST

[2] = biological target: T2, Myc-GFP-tagged Fl(2)d middle region and C-terminus (residues 125-536) (Drosophila melanogaster) (UniProt Q9Y091); assay: as above
T2 sequence: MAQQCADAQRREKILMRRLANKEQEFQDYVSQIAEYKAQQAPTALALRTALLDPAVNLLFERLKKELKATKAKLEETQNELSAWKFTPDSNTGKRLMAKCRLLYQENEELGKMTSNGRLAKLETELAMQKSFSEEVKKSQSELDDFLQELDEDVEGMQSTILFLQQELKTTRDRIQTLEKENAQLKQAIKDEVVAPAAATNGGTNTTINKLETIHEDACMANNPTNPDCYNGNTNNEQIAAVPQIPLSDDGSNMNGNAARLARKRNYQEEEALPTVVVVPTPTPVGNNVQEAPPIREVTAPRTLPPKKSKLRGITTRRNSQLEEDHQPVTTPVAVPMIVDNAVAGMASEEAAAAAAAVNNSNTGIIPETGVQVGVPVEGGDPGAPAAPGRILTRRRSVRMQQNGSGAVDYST

[3] = biological target: T3, Myc-GFP-tagged Virilizer C-terminal region (residues 1501-1854) (Drosophila melanogaster) (UniProt Q9W1R5); assay: as above
T3 sequence: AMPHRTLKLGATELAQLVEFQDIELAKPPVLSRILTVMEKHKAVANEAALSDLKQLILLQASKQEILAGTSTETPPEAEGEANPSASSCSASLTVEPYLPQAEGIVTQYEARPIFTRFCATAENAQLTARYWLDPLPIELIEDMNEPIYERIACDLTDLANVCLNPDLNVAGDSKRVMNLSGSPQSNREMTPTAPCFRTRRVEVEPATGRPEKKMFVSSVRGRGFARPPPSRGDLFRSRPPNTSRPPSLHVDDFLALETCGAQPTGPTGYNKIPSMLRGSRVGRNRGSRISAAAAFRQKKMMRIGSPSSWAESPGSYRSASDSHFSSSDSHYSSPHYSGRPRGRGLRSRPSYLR

[4] = biological target: T4, human VIRMA N-terminal domain (residues 1-130) (human) (UniProt Q69YN4); assay: co-IP; HEK293T cells co-transfected with His6-FLAG3-eGFP- and His6-HA3-mCherry-tagged human constructs; lysis buffer 20 mM Tris-HCl pH 7.5, 150 mM KCl, 1 mM EDTA, 0.1% Tween20; RNase A; anti-FLAG M2 magnetic beads, 1 h; gels scanned for GFP and mCherry
T4 sequence: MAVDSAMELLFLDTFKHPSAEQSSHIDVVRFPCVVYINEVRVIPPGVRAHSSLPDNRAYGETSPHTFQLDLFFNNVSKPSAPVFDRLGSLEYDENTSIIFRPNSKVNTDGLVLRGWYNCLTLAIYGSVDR

human VIRMA (human) = human VIRMA (human) (UniProt Q69YN4); assay: as above

HA-tagged Virilizer (from UniProt Q9W1R5 1-1854)
binding [1]: binds | binding [2]: binds

B1: HA-tagged Fl(2)d (pAc5.1B-lambdaN-HA vector) (protein, UniProt Q9Y091 1-536)
chain: MSVAAMTMDDQRPCMNSYDKMPPTKYEQNLNILNSSQNSGATGGPASPTPSGLEDHHHHHHPHPHHHHHQEQQQQQQQQQHLQQQQQQQQQQHAAAVAEAVAAAEQRQRLLEDEIENLKLEQVRMAQQCADAQRREKILMRRLANKEQEFQDYVSQIAEYKAQQAPTALALRTALLDPAVNLLFERLKKELKATKAKLEETQNELSAWKFTPDSNTGKRLMAKCRLLYQENEELGKMTSNGRLAKLETELAMQKSFSEEVKKSQSELDDFLQELDEDVEGMQSTILFLQQELKTTRDRIQTLEKENAQLKQAIKDEVVAPAAATNGGTNTTINKLETIHEDACMANNPTNPDCYNGNTNNEQIAAVPQIPLSDDGSNMNGNAARLARKRNYQEEEALPTVVVVPTPTPVGNNVQEAPPIREVTAPRTLPPKKSKLRGITTRRNSQLEEDHQPVTTPVAVPMIVDNAVAGMASEEAAAAAAAVNNSNTGIIPETGVQVGVPVEGGDPGAPAAPGRILTRRRSVRMQQNGSGAVDYST
binding [3]: binds

B2: Nito (construct of the experiments of Supplementary Figs. 4 and 5) (protein, UniProt Q7KMJ6 1-793)
chain: MSSHRDGAGADRITIKIHNMKRSASRSPGPASRSSLSRNSRSMGRGYDNGSGVPGDSPERLSPERMRRRLDRSPSRYGSPHREPYMRGPPPAERPAGYKVLCVSALPPKAPDDFIEETLYREYKKFGDFSVRLAHDLDERVAYVCFRTPEDAREAKHHKPRLIIYDKMAIVEPVYKSTTRPEYRPRGHSMSPPDYERYHYSRSPMGQGVPLDHRRPPIDPYDRYGPPHMHPHAVHPRDYRPLHHDYPHPPRGPPLHRGGHPHHLHGHAPPHQYAPMRPLAPRPHAPYEKPESKKDKFPNYLHHVQPEDDPLSTRTLFAGNLEVTIADDELRRIFGKYGVVDDIDIKRPPPGTGNAFAFVRYQNLDMAHRAKIELSGQYIGKFQCKIGYGKVTPATRMWIGGLGAWTSVTQLEREFDRFGAIKKIEYQKGEPYAYIQYETVEAATAAVKEMRGFPLGGPERRLRTDFAELPGATPAAPFKSSKPPYDESALEYRRPEYDPYYEESAAYAPRGGYSPYPPRGGYRGRGGYRGRGRGMYHYHNDVHRPPHPGSLAGSSSSVPPPGGVEDEWRRPPGESYDRGARSSSREPGVERSRSRSPLKRARSPGSDSDTSTRRNDALASASTVPDVARKCSTVWTGALILKSSLFPAKFHLTDGDTDIVESLMRDEEGKHNLRITQRLRLDPPKLDDVQKRIASSSSHAIFMGLAGSTNDTNCDDASVQTRPLRNLVSYLKQKEAAGVISLLNKETEATGVLYAFPPCDFSTELLKRTCHSLTEEGLKEDHLVIVVVRGGTA
binding [1]: binds

B3: human HAKAI (protein, UniProt Q75N03 1-491)
chain: MDHTDNELQGTNSSGSLGGLDVRRRIPIKLISKQANKAKPAPRTQRTINRMPAKAPPGDEEGFDYNEEERYDCKGGELFANQRRFPGHLFWDFQINILGEKDDTPVHFCDKCGLPIKIYGRMIPCKHVFCYDCAILHEKKGDKMCPGCSDPVQRIEQCTRGSLFMCSIVQGCKRTYLSQRDLQAHINHRHMRAGKPVTRASLENVHPPIAPPPTEIPERFIMPPDKHHMSHIPPKQHIMMPPPPLQHVPHEHYNQPHEDIRAPPAELSMAPPPPRSVSQETFRISTRKHSNLITVPIQDDSNSGAREPPPPAPAPAHHHPEYQGQPVVSHPHHIMPPQQHYAPPPPPPPPISHPMPHPPQAAGTPHLVYSQAPPPPMTSAPPPITPPPGHIIAQMPPYMNHPPPGPPPPQHGGPPVTAPPPHHYNPNSLPQFTEDQGTLSPPFTQPGGMSPGIWPAPRGPPPPPRLQGPPSQTPLPGPHHPDQTRYRPYYQ
binding [4]: binds

B4: human WTAP predicted structured region (residues 1-249) (domain or fragment, UniProt Q15007 1-249)
chain: MTNEEPLPKKVRLSETDFKVMARDELILRWKQYEAYVQALEGKYTDLNSNDVTGLRESEEKLKQQQQESARRENILVMRLATKEQEMQECTTQIQYLKQVQQPSVAQLRSTMVDPAINLFFLKMKGELEQTKDKLEQAQNELSAWKFTPDSQTGKKLMAKCRMLIQENQELGRQLSQGRIAQLEAELALQKKYSEELKSSQDELNDFIIQLDEEVEGMQSTILVLQQQLKETRQQLAQYQQQQSQASAP
binding (human VIRMA (human)): binds
